PubChem BioAssay AID1224830 | NIAID – 2016

- Assay: 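Host factors that control LPS-induced TNF expression in human macrophages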 (primary screen)
- System: human THP-1 monocytic leukaemia cells, TNF dual-luciferase reporter clone, PMA-differentiated to macrophage-like cells
- Knock-down reagent: siRNA pool against human genes, 50 nM
- Time to read-out: LPS for 4 h, given about 3 days after siRNA transfection
- Treatment: bacterial LPS (TLR4 ligand), 10 ng/ml
- Measured: 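TNF firefly reporter luminescence divided by renilla, normalised to the plate median, then turned into a robust z-score for each replicate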
- Reading the numbers: TNF reporter robust z-score: higher = stronger TNF reporter response to LPS
- Call rule: 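Each well counts as active if its z-score is over 2.8 or under -1.5; controls are left without a call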
Shown is a random part of about 18,000 reagents tested. Over the whole deposit, about 2,900 (16%) got an active call. 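Calls are made per well; low scores hint the gene aids the LPS response, high scores that it dampens it.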 Repeated entries: four replicate wells of each siRNA pool.

target gene	TNF reporter robust z-score	Call
RNF6 (ring finger protein 6)	-0.1	inactive
RNF6 (ring finger protein 6)	0.32	inactive
RNF6 (ring finger protein 6)	-0.2	inactive
RNF6 (ring finger protein 6)	2.4	inactive
CIMAP1A (ciliary microtubule associated protein 1A)	1.02	inactive
CIMAP1A (ciliary microtubule associated protein 1A)	2.2	inactive
CIMAP1A (ciliary microtubule associated protein 1A)	2.27	inactive
CIMAP1A (ciliary microtubule associated protein 1A)	3.52	active
ALOX5 (arachidonate 5-lipoxygenase)	-0.89	inactive
ALOX5 (arachidonate 5-lipoxygenase)	-0.29	inactive
ALOX5 (arachidonate 5-lipoxygenase)	-0.78	inactive
ALOX5 (arachidonate 5-lipoxygenase)	-0.1	inactive
CD164 (CD164 molecule)	-1.51	active
CD164 (CD164 molecule)	-1.16	inactive
CD164 (CD164 molecule)	-1.11	inactive
CD164 (CD164 molecule)	-0.94	inactive
RNASEK (ribonuclease K)	0.94	inactive
RNASEK (ribonuclease K)	0.43	inactive
RNASEK (ribonuclease K)	0.78	inactive
RNASEK (ribonuclease K)	1.09	inactive
SMCO4 (single-pass membrane protein with coiled-coil domains 4)	0.4	inactive
SMCO4 (single-pass membrane protein with coiled-coil domains 4)	-0.2	inactive
SMCO4 (single-pass membrane protein with coiled-coil domains 4)	1.59	inactive
SMCO4 (single-pass membrane protein with coiled-coil domains 4)	-0.05	inactive
SHMT2 (serine hydroxymethyltransferase 2)	-1.39	inactive
SHMT2 (serine hydroxymethyltransferase 2)	-0.25	inactive
SHMT2 (serine hydroxymethyltransferase 2)	-0.17	inactive
SHMT2 (serine hydroxymethyltransferase 2)	-0.43	inactive
PAGE5 (PAGE family member 5)	-0.98	inactive
PAGE5 (PAGE family member 5)	-0.77	inactive
PAGE5 (PAGE family member 5)	-0.91	inactive
PAGE5 (PAGE family member 5)	-0.59	inactive
NAGS (N-acetylglutamate synthase)	0.33	inactive
NAGS (N-acetylglutamate synthase)	3.03	active
NAGS (N-acetylglutamate synthase)	1.9	inactive
CHMP2B (charged multivesicular body protein 2B)	0.14	inactive
CHMP2B (charged multivesicular body protein 2B)	0.44	inactive
CHMP2B (charged multivesicular body protein 2B)	-0.69	inactive
CHMP2B (charged multivesicular body protein 2B)	-1.44	inactive
DUSP9 (dual specificity phosphatase 9)	2.29	inactive
DUSP9 (dual specificity phosphatase 9)	-0.46	inactive
DUSP9 (dual specificity phosphatase 9)	-1.07	inactive
DUSP9 (dual specificity phosphatase 9)	-0.57	inactive
SPIN2A (spindlin family member 2A)		inactive
ZNHIT1 (zinc finger HIT-type containing 1)	-0.51	inactive
ZNHIT1 (zinc finger HIT-type containing 1)	0.41	inactive
ZNHIT1 (zinc finger HIT-type containing 1)	-0.41	inactive
ZNHIT1 (zinc finger HIT-type containing 1)	0.02	inactive
PDE6D (phosphodiesterase 6D)	-0.4	inactive
PDE6D (phosphodiesterase 6D)	0.12	inactive
PDE6D (phosphodiesterase 6D)	-0.42	inactive
PDE6D (phosphodiesterase 6D)	-0.91	inactive
TIPE3 (TNF alpha induced protein 8 like 3)	0.78	inactive
TIPE3 (TNF alpha induced protein 8 like 3)	0.83	inactive
TIPE3 (TNF alpha induced protein 8 like 3)	1.04	inactive
TIPE3 (TNF alpha induced protein 8 like 3)	2.08	inactive
EVI5L (ecotropic viral integration site 5 like)	-0.38	inactive
EVI5L (ecotropic viral integration site 5 like)	1.69	inactive
EVI5L (ecotropic viral integration site 5 like)	-0.25	inactive
EVI5L (ecotropic viral integration site 5 like)	1.06	inactive
SHLD2 (shieldin complex subunit 2)	-0.07	inactive
SHLD2 (shieldin complex subunit 2)	-0.22	inactive
SHLD2 (shieldin complex subunit 2)	-0.56	inactive
SHLD2 (shieldin complex subunit 2)	-0.23	inactive
TMEM151A (transmembrane protein 151A)	1.88	inactive
TMEM151A (transmembrane protein 151A)	0.65	inactive
TMEM151A (transmembrane protein 151A)	0.72	inactive
TMEM151A (transmembrane protein 151A)	0.73	inactive
SLC30A1	0.03	inactive
SLC30A1	-0.99	inactive
SLC30A1	1.03	inactive
SLC30A1	1.07	inactive
RXRA (retinoid X receptor alpha)	0.86	inactive
RXRA (retinoid X receptor alpha)	0.71	inactive
RXRA (retinoid X receptor alpha)	-0.1	inactive
RXRA (retinoid X receptor alpha)	0.19	inactive

Reagents above marked active:
target gene	TNF reporter robust z-score	Call
CIMAP1A (ciliary microtubule associated protein 1A)	3.52	active
CD164 (CD164 molecule)	-1.51	active
NAGS (N-acetylglutamate synthase)	3.03	active
